Test results published in PubChem BioAssay AID2517 (National Center for Advancing Translational Sciences (NCATS), 2010).
About 1,200 (0.34%) of roughly 350,000 compounds were called active. The inconclusive results got no clear call from the source; some entries with a clear call stand among them for comparison. Calls come from the whole dose curve; as a rule, active = well fitted inhibition curve with a large enough effect; inconclusive = small, poorly fitted or top-dose-only effect; inactive = no such curve, though single readings can be large or run the other way. Potencies of inconclusive entries are doubtful fits and often do not repeat.

The chains behind the UniProt entries cited, without tags or fusion partners.
UniProt P27695, whole entry, looked up: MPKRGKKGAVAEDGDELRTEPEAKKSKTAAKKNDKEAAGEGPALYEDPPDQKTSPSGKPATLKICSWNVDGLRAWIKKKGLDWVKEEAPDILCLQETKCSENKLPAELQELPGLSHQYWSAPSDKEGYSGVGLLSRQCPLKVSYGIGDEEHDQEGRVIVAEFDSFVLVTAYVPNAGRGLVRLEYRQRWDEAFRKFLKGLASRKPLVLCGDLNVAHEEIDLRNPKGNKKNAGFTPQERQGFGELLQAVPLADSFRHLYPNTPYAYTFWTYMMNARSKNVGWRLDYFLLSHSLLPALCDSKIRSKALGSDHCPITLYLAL

These compounds were tested against DNA repair nuclease/redox regulator APEX1 (Homo sapiens) (UniProt P27695) (assay: qHTS Assay for Inhibitors of the Human Apurinic/apyrimidinic Endonuclease 1 (APE1)). Conditions: recombinant APE1, TAMRA/BHQ-2 abasic DNA cleavage fluorescence; activity change, negative = inhibition: at 65.8 µM (top of the series).
Method in brief: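 Incision of a quenched TAMRA/BHQ-2 THF abasic-site duplex (50 nM) by 0.75 nM APE1, after 15 min compound preincubation, measured as fluorescence increase over three 60 s reads. Values normalized to buffer, DMSO and NSC13755 control wells.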
Note: nearly all actives have a fitted effect of over 55% in size.
Potency is the fitted concentration of half-maximal effect.
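Throughout, for activity change, negative = inhibition: plate controls were vehicle for no effect and reference inhibitor for full effect.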

Q: How did the Potency turn out when `CCc1ccccc1NC(=O)COc1ccc(C(=S)N2CCCC2)cc1` was run?
A: The Potency was inconclusive: 3.16 µM [inhibitor, single point].

Q: Which Potency does the source give for `COCc1cc(=O)[nH]c2c1c(-c1ccccc1)nn2C` here?
A: Its Potency is inconclusive: 3.55 µM [inhibitor, single point].

Q: How did the Potency turn out when `CCOc1ccc2nc3cc(NCc4ccc(OC)cc4)ccc3c(N)c2c1` was run?
A: Its Potency is “inactive”.

Q: How did the Potency turn out when `CCOc1cc(/C=C2\C(=N)N3N=C(S(C)(=O)=O)SC3=NC2=O)ccc1OCCOc1cccc(OC)c1` was run?
A: Its Potency is inconclusive: 29.9 µM [inhibitor, single point].

Q: With `CC(=O)c1ccccc1NS(=O)(=O)c1cccc2nsnc12` as the compound, how does the Potency read?
A: Its Potency is active: 5.32 µM.

Q: `Cc1ccc(C(=O)CSc2nnnn2C(C)C)c(C)c1` was tested. Which Potency did it give?
A: Its Potency is inconclusive: 44.7 µM [inhibitor, single point].

Q: For `CCCC(=O)OCC(=O)c1[nH]c(C)c(C(C)=O)c1C`, which Potency is on record?
A: The Potency was “inactive”.

Q: For `Cc1cc(N/N=C/c2ccccc2)nc(N2CCOCC2)n1`, which Potency is on record?
A: The Potency was inconclusive: 35.5 µM [inhibitor, partial curve, poor fit].

Q: Which Potency does the source give for `Cc1ccccc1C(=O)NC(CC(C)C)C(=O)NN1C(=O)c2ccccc2C1=O` (stereo not given) here?
A: The Potency was inconclusive: 39.8 µM [inhibitor, single point].

Q: How did the Potency turn out when `Cc1noc(C)c1-c1ccc2ncnc(NCc3ccc(Br)cc3)c2c1` was run?
A: Its Potency is inconclusive: 31.6 µM [inhibitor, single point].

Q: How did the Potency turn out when `CCOC(=O)/C=C(\C)Sc1cc(O)c2ccccc2c1O` was run?
A: Its Potency is inconclusive: 2.82 µM [inhibitor, partial curve, poor fit].

Q: For `CCN(CC)c1ccc(/C=N/NC(=O)c2ccc(O)cc2)cc1`, which Potency is on record?
A: The Potency was inconclusive: 14.1 µM [inhibitor, partial curve, poor fit].

Q: For `CC(=O)c1cc(-c2ccccc2)n(CC(=O)Nc2ccc(C)c(C)c2)c1C`, which Potency is on record?
A: The Potency was inconclusive: 0.199 µM [inhibitor, full curve, poor fit].

Q: Which Potency does the source give for `O=C(NCc1ccco1)c1cc(S(=O)(=O)N2CCOCC2)ccc1Br` here?
A: Its Potency is “inactive”.

Q: How did the Potency turn out when `Cc1ccc(N2C(=O)C3ON(c4ccccc4)C(CC(C)C)C3C2=O)cc1` (stereo not given) was run?
A: Its Potency is inconclusive: 39.8 µM [inhibitor, single point].

Q: How did the Potency turn out when `CCn1c(SCc2nnc(-c3ccccc3)o2)nnc1-c1ccc(S(=O)(=O)N2CCCC2)cc1` was run?
A: The Potency was “inactive”.

Q: With `NC(N)=NC(N)=Nc1ccc2ccccc2c1` as the compound, how does the Potency read?
A: Its Potency is inconclusive: 8.91 µM [inhibitor, single point].

Q: With `O=C(O)c1ccccc1-n1ncc2c1/C(=C/c1ccc(Cl)cc1)CC2` as the compound, how does the Potency read?
A: The Potency was inconclusive: 39.8 µM [inhibitor, single point].

Q: `Cc1ccc(-n2nc(-c3ccco3)cc2C(=O)O)cc1` was tested. Which Potency did it give?
A: Its Potency is inconclusive: 25.1 µM [inhibitor, partial curve].

Q: `Cc1ccc(S(=O)(=O)N2CCN(c3nc(C)nc4sc(C)c(C)c34)CC2)cc1` was tested. Which Potency did it give?
A: Its Potency is inconclusive: 4.47 µM [inhibitor, full curve].

Q: Which Potency does the source give for `[C-]#[N+]/C(C#N)=C\c1cc(C(C)(C)C)c(O)c(C(C)(C)C)c1` here?
A: Its Potency is inconclusive: 39.8 µM [inhibitor, single point].

Q: `Cc1ccc(NC(=O)COC(=O)Cn2cnc3ccccc32)cc1S(=O)(=O)N(C)C` was tested. Which Potency did it give?
A: The Potency was inconclusive: 0.224 µM [inhibitor, full curve, poor fit].

Q: `O=C(O)CCc1ccc(-c2ccc(Br)cc2)n1-c1ccc(O)cc1` was tested. Which Potency did it give?
A: Its Potency is “inactive”.

Q: For `COc1ccc(N2CCN(CCCNC(=O)C3CCCN(S(=O)(=O)c4cnc[nH]4)C3)CC2)cc1` (stereo not given), which Potency is on record?
A: Its Potency is inconclusive: 20 µM [inhibitor, single point].

Q: How did the Potency turn out when `CCN1C/C(=C/c2sccc2C)c2nc3ccccc3c(C(=O)O)c2C1` was run?
A: The Potency was “inactive”.

Q: Which Potency does the source give for `O=C(c1cccc(C(=O)N2CCc3ccccc32)n1)N1CCc2ccccc21` here?
A: Its Potency is inconclusive: 44.7 µM [inhibitor, single point].

Q: `O=C1OC(C2=CCCCC2)=NC12CC2` was tested. Which Potency did it give?
A: The Potency was inconclusive: 7.94 µM [inhibitor, single point].

Q: With `Cc1cccc(NC(=O)CSc2nnc(-c3ccco3)c(-c3ccco3)n2)c1C` as the compound, how does the Potency read?
A: The Potency was inconclusive: 25.1 µM [inhibitor, partial curve].

Q: How did the Potency turn out when `CN(C)N1C(N)=C(C#N)C(c2ccc(Cl)cc2)C2=C1CCCC2=O` (stereo not given) was run?
A: The Potency was “inactive”.

Q: `O=C(O)C/C(=C\c1cc(Cl)c2c(c1)OCO2)c1nc2ccccc2s1` was tested. Which Potency did it give?
A: Its Potency is inconclusive: 11.9 µM [inhibitor, partial curve].

Q: Which Potency does the source give for `O=C(O)CC(CCc1ccccc1)OC1OC(CO)C(O)C(O)C1O` (stereo not given) here?
A: Its Potency is active: 0.355 µM.

Q: `CC(C)c1onc(C(=O)Nc2sc3c(c2C#N)CCC3)c1[N+](=O)[O-]` was tested. Which Potency did it give?
A: The Potency was inconclusive: 44.7 µM [inhibitor, single point].

Q: Which Potency does the source give for `CCOC(=O)C1=C(C)NC(C)=C(C(=O)OCC)C1C(=O)OCC(=O)N(CC)C1CCS(=O)(=O)C1` (stereo not given) here?
A: Its Potency is inconclusive: 44.7 µM [inhibitor, single point].

Q: How did the Potency turn out when `COc1cccc(C(=O)N(c2ccc(C)cc2)C2C=CS(=O)(=O)C2)c1` (stereo not given) was run?
A: The Potency was inconclusive: 7.94 µM [inhibitor, single point].

Q: With `COc1ccc(COC(=O)N/N=C2/C[C@@H](O)[C@@H](O)[C@@H]3[C@@H]4C(=O)N(C5CCCCC5)C(=O)[C@H]4CC[C@@H]23)cc1` as the compound, how does the activity change, negative = inhibition read?
A: The activity change, negative = inhibition was inactive: 11.6% [at 12.4 µM].

Q: With `Cc1ccccc1-c1nc(CN2CCCC(C(=O)NCc3cccnc3)C2)c(C)o1` (stereo not given) as the compound, how does the Potency read?
A: Its Potency is inconclusive: 39.8 µM [inhibitor, single point].

Q: Which Potency does the source give for `Cc1nc(N2CCOCC2)c2nc(-c3ccccc3)n(CCCN3CCOCC3)c2n1` here?
A: Its Potency is “inactive”.

Q: With `COc1cc2sc3cc(NCC[C@@H]4CCCN4C)ccc3c(=O)c2cc1OC` as the compound, how does the Potency read?
A: Its Potency is inconclusive: 26.7 µM [inhibitor, partial curve].

Q: For `COc1cc(C(=O)Nc2cccc(-c3nc4cc(C)ccc4o3)c2)cc(OC)c1OC`, which Potency is on record?
A: Its Potency is inconclusive: 15.8 µM [inhibitor, partial curve].

Q: Which Potency does the source give for `CCOc1ccc(NC(=NCc2ccc3c(c2)OCO3)SC2CC(=O)N(c3ccc(OCC)cc3)C2=O)cc1` (stereo not given) here?
A: The Potency was inconclusive: 35.5 µM [inhibitor, single point].

Q: How did the Potency turn out when `COc1ccc(NC(=O)/C(C#N)=C/c2c(C)nn(-c3ccc(F)cc3)c2Cl)cc1Cl` was run?
A: The Potency was inconclusive: 4.47 µM [inhibitor, single point].

Q: For `CC(C)C(=O)Nc1ccc(-c2nnc(-c3ccccc3)o2)cc1`, which Potency is on record?
A: The Potency was inconclusive: 29.9 µM [inhibitor, single point].

Q: For `COc1ccccc1CN(Cc1cc2cc(C)ccc2[nH]c1=O)Cc1nnnn1CC1CCCO1` (stereo not given), which Potency is on record?
A: The Potency was inconclusive: 5.01 µM [inhibitor, partial curve, poor fit].

Q: How did the Potency turn out when `COCCCNC(=O)c1ccc2c3c(onc13)-c1ccccc1C2=O` was run?
A: Its Potency is inconclusive: 44.7 µM [inhibitor, single point].

Q: `Cc1ccc(C(=O)N2CCN(c3ccccn3)CC2)cc1[N+](=O)[O-]` was tested. Which Potency did it give?
A: The Potency was inconclusive: 0.0501 µM [inhibitor, full curve, poor fit].

Q: For `CN(C)c1ccc(N=Nc2ccc(S(N)(=O)=O)cc2)cc1`, which Potency is on record?
A: Its Potency is “inactive”.

Q: `O=C(NC1=NCCS1)c1ccc([N+](=O)[O-])cc1Cl` was tested. Which Potency did it give?
A: Its Potency is inconclusive: 22.4 µM [inhibitor, partial curve, poor fit].

Q: For `O=C(O)c1ccc(N/N=C/c2cccc(F)c2)cc1`, which Potency is on record?
A: The Potency was inconclusive: 44.7 µM [inhibitor, single point].

Q: Which Potency does the source give for `CO/N=C(/C(=O)NC1C(=O)N2C(C(=O)O)=C(COC(N)=O)CSC12)c1ccco1` (stereo not given) here?
A: Its Potency is inconclusive: 10 µM [inhibitor, partial curve].

Q: For `CCc1ccc(C2CC(c3ccc(Cl)cc3)=NNC2=O)cc1` (stereo not given), which Potency is on record?
A: The Potency was inconclusive: 39.8 µM [inhibitor, single point].

Q: For `CC(=O)Nc1nc(-c2ccc(Cl)cc2)nc(C)c1C(C)=O`, which Potency is on record?
A: The Potency was inconclusive: 25.1 µM [inhibitor, single point].

Q: With `COc1ccc(Cc2n[nH]c(=S)n2NC(=O)Nc2ccc(Cl)c(Cl)c2)cc1` as the compound, how does the Potency read?
A: The Potency was inconclusive: 44.7 µM [inhibitor, single point].

Q: `N=C1S/C(=C\c2ccco2)C(=O)N1c1ccc2c(c1)OCO2` was tested. Which Potency did it give?
A: Its Potency is inconclusive: 31.6 µM [inhibitor, single point].

Q: With `CCc1ccc(/C=C/C(=O)c2c(C)cc(C)[nH]c2=O)cc1` as the compound, how does the Potency read?
A: Its Potency is inconclusive: 10 µM [inhibitor, single point].

Q: For `COCCn1c(=O)c(-c2ccc(OC)cc2)nc2cnc(N3CCN(C)CC3)nc21`, which Potency is on record?
A: The Potency was “inactive”.

Q: How did the Potency turn out when `O=C(O)C(CO)(c1ccccc1)c1ccccc1` was run?
A: Its Potency is inconclusive: 23.8 µM [inhibitor, single point].

Q: How did the Potency turn out when `COc1ccc2c(C)cc(SCC(=O)Nc3ccc(Cl)cn3)nc2c1` was run?
A: Its Potency is inconclusive: 22.4 µM [inhibitor, single point].

Q: How did the Potency turn out when `CCc1nnc(NC(=O)CCC(=O)NC2CC2)s1` was run?
A: Its Potency is inconclusive: 33.6 µM [inhibitor, single point].

Q: With `O=C(CCNC(=O)OCc1ccccc1)NC1CCCCC1` as the compound, how does the Potency read?
A: Its Potency is inconclusive: 44.7 µM [inhibitor, partial curve, poor fit].

Q: How did the Potency turn out when `COc1ccc2cc3c(N)nn(C(=O)c4ccccc4Cl)c3nc2c1` was run?
A: The Potency was “inactive”.

Q: `O=C(O)c1[nH]c2ccccc2c1CC(=O)N1CCOCC1` was tested. Which Potency did it give?
A: Its Potency is “inactive”.

Q: Which Potency does the source give for `O=C(CNC(=O)N1CC(=O)Nc2ccccc21)Nc1cc(Cl)ccc1Cl` here?
A: The Potency was “inactive”.

Q: `O=C(c1cnc(N2CCN(c3ncccn3)CC2)c2ccccc12)N1CCN(c2ccccn2)CC1` was tested. Which Potency did it give?
A: Its Potency is inconclusive: 31.6 µM [inhibitor, partial curve, poor fit].

Q: For `COC(=O)c1cc(C#N)c(Oc2ccc(F)cc2)nc1C`, which Potency is on record?
A: The Potency was inconclusive: 3.16 µM [inhibitor, single point].

Q: Which Potency does the source give for `COc1ccc(NC(=O)C2CCN(S(=O)(=O)c3c(C)noc3C)CC2)cc1Cl` here?
A: The Potency was inconclusive: 10 µM [inhibitor, full curve].
